Source: the supplement of paper PMC10849652
This is one part of the list.

The chains behind the UniProt entries cited, without tags or fusion partners. Where a name states a change or a piece, a line headed by the entry shows the natural chain unless it says otherwise.
UniProt O43913: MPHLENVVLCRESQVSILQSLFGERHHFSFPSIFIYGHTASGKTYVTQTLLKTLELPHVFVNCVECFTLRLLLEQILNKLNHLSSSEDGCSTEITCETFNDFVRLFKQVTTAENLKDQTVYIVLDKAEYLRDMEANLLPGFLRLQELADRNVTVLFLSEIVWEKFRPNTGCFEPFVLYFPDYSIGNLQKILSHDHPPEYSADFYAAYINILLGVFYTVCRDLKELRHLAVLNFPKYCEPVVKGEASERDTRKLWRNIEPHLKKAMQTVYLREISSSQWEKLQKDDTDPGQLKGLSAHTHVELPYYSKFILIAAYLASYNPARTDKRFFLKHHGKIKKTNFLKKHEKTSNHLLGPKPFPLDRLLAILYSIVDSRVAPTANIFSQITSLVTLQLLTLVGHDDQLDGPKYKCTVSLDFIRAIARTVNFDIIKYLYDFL
UniProt Q96E52: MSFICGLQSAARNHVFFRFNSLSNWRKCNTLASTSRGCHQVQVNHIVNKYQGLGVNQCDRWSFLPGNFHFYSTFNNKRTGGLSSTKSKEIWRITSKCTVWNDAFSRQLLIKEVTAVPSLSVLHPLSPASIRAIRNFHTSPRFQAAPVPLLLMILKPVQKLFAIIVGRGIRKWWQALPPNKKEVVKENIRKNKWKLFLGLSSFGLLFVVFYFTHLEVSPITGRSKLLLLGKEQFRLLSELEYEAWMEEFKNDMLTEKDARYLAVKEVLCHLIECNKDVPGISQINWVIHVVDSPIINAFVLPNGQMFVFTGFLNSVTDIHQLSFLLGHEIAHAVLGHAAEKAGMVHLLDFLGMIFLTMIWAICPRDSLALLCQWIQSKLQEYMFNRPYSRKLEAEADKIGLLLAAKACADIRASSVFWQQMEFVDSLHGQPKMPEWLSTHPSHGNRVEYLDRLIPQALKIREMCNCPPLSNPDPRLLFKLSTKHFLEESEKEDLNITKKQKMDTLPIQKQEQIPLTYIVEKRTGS
UniProt Q15102: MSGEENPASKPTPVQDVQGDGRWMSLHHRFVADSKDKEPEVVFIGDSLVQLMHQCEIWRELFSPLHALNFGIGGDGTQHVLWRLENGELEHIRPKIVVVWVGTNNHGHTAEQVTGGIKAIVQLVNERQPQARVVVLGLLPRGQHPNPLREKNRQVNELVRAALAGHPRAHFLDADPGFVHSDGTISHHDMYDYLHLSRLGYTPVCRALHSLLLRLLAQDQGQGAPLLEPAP
UniProt A6NDB9: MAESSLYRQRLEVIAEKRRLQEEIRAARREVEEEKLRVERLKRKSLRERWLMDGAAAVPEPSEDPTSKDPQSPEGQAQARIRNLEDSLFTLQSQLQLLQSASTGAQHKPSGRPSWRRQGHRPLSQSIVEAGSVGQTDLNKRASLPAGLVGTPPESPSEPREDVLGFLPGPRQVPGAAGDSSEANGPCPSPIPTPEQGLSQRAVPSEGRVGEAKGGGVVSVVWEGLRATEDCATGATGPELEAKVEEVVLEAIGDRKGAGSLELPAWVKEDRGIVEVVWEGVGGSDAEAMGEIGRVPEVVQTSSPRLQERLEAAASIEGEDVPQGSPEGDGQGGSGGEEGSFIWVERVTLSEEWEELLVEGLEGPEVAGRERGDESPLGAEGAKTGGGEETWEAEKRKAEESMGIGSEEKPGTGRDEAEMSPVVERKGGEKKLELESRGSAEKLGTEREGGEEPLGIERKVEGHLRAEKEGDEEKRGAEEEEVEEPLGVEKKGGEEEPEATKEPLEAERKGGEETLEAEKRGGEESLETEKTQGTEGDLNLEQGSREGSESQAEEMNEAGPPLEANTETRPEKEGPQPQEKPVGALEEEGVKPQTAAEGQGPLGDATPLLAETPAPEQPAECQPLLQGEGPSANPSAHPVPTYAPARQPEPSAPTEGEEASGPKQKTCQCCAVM
UniProt Q6VY07, whole entry, looked up: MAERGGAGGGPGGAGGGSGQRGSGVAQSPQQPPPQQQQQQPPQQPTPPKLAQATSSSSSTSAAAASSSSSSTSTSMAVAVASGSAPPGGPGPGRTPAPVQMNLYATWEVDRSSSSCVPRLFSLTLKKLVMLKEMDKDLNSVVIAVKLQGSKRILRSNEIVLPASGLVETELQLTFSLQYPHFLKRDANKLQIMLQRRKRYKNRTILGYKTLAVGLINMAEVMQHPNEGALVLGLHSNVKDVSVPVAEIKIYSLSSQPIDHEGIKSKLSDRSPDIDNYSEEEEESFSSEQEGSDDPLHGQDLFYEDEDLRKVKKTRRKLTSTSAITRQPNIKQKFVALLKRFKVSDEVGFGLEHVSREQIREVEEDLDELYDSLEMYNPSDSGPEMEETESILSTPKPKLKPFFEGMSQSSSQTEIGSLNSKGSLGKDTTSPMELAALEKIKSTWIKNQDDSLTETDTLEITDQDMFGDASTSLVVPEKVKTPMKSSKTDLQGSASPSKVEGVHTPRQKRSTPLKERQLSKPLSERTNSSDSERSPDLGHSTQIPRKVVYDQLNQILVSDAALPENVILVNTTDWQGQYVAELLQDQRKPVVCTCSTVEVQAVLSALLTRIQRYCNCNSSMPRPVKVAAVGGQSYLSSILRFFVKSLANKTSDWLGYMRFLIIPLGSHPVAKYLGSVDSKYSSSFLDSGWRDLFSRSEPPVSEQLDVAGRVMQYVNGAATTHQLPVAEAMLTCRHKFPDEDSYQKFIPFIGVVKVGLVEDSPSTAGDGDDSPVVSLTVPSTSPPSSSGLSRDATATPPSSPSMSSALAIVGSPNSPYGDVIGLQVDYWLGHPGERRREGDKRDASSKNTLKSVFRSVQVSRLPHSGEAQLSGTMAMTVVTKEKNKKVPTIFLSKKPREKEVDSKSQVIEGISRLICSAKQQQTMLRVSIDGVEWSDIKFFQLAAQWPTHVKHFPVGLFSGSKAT
UniProt P51003: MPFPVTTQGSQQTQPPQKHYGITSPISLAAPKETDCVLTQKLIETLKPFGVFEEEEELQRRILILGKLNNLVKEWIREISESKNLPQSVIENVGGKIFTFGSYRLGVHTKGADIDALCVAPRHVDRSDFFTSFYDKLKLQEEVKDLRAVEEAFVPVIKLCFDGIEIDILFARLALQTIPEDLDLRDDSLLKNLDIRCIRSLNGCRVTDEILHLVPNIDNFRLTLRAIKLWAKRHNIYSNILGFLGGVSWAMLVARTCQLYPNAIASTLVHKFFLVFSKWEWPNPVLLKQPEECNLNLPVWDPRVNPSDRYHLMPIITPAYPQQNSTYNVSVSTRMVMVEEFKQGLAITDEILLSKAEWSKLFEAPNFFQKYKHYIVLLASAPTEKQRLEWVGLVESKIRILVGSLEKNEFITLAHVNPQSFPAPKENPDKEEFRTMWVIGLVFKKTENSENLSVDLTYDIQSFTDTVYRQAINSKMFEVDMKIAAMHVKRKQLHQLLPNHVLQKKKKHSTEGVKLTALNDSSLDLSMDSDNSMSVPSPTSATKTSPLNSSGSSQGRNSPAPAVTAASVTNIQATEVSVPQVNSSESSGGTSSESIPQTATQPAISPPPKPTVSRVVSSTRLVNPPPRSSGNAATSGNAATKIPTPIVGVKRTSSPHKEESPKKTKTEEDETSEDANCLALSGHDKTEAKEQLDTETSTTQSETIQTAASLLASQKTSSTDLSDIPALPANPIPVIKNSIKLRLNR
UniProt Q9UKX7: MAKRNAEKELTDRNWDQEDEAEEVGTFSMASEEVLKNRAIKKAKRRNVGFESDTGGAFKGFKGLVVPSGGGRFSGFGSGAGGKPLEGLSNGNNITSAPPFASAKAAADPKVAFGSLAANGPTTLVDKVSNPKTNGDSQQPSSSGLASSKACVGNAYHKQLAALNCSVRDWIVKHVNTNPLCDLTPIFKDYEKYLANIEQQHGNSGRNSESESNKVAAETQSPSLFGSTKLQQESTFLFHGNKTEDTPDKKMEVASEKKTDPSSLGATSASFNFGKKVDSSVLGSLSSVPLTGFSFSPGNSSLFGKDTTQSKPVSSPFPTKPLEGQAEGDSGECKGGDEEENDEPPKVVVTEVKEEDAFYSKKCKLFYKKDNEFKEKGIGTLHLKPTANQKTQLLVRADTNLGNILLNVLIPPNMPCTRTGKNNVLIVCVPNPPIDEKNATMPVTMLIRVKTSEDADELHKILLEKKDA
UniProt Q9NWT1: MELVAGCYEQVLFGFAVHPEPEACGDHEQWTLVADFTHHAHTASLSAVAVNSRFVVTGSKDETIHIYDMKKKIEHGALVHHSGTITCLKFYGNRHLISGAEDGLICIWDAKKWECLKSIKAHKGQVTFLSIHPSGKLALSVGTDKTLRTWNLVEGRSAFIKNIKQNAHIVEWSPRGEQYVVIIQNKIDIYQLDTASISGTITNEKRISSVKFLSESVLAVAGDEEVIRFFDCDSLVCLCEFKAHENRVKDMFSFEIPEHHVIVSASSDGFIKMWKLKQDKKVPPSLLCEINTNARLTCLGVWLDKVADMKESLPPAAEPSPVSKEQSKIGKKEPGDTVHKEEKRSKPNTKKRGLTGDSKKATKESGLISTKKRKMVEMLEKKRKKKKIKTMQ
UniProt Q9UNF0: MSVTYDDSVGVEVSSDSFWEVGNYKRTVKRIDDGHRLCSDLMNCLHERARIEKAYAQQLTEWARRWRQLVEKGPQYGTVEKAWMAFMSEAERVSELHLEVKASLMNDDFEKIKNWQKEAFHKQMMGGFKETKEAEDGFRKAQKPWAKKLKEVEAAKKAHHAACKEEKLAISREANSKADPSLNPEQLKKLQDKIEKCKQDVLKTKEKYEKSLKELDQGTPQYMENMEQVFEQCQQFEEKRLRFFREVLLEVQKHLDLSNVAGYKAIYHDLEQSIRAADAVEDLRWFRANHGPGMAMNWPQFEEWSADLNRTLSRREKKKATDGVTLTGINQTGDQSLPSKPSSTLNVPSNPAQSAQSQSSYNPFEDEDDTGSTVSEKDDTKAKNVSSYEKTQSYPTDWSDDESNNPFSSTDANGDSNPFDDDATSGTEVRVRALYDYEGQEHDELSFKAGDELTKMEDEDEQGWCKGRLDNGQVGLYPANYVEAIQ
UniProt O43929: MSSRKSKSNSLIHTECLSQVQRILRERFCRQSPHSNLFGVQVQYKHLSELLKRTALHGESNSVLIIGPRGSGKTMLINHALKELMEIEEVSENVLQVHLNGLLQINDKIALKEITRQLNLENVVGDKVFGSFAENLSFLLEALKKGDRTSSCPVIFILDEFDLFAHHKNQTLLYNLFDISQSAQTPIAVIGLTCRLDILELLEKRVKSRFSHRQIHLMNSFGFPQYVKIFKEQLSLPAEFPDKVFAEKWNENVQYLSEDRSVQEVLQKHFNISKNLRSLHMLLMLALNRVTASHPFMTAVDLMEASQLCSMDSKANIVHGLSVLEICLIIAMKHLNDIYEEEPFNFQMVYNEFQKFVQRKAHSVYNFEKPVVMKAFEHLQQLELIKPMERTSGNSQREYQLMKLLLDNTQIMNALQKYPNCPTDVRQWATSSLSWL
UniProt Q9H1P3, whole entry, looked up: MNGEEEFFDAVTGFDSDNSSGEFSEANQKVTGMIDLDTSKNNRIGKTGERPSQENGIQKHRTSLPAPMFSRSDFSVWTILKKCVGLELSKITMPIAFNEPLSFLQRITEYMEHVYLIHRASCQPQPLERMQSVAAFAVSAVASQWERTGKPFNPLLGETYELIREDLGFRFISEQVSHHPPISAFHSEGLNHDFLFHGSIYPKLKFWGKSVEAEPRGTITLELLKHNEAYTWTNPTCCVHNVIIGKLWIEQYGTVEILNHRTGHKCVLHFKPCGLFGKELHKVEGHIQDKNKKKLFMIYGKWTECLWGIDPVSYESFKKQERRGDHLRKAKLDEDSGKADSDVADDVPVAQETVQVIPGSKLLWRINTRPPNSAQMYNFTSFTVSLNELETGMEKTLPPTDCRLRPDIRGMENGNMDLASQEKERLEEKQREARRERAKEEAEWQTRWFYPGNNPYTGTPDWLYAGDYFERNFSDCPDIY
UniProt Q9UBD5: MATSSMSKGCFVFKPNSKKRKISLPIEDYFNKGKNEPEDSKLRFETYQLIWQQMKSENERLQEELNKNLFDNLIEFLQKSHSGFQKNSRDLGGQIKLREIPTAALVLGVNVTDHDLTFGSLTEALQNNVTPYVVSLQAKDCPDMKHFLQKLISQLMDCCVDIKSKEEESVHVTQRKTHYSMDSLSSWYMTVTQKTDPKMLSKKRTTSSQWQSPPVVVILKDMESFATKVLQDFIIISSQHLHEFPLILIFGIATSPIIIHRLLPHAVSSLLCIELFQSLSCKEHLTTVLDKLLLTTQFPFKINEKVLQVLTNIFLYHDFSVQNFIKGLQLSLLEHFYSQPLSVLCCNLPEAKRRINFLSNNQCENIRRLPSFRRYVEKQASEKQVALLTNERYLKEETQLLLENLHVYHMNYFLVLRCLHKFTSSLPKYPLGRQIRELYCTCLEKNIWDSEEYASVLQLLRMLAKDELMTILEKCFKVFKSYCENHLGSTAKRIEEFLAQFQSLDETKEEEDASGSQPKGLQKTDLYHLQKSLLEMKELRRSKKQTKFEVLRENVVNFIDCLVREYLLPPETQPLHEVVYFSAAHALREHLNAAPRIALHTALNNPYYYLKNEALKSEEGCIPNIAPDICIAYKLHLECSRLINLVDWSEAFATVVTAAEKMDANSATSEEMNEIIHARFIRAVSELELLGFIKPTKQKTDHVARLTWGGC

Compound: C=CC(=O)N1CCC[C@@H](n2nc(-c3ccc(Oc4ccccc4)cc3)c3c(N)ncnc32)C1 [ibrutinib]
Test: log2 fold change, soluble protein after heating vs DMSO (PISA); higher = thermal stabilisation; K562 lysate, 10 uM; active = over 0.2 and 3.5 SD of the protein, either way, in both replicates (recomputed)
Summary of the method: (§1)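 The values are log-two fold changes in thermal stability compared with solvent controls and come from duplicates. They were obtained by TMTpro 16plex LC-MS/MS, with channel sums equalised, on the supernatant after 21,000xg for 90 min. That supernatant came from crude K562 extract at 1 mg/mL protein treated with 10 μM compound for 30 min, heated for 3 min across 48°C-58°C, pooled and brought to 0.5% NP-40 at 4°C.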

Target	log2 fold change
OXSR1 (UniProt O95747)	inactive: 0.031
ORC5 (UniProt O43913)	inactive: 0.05
OSBPL8 (UniProt Q9BZF1)	inactive: -0.035
NUP188 (UniProt Q5SRE5)	inactive: -0.026
PAGR1 (UniProt Q9BTK6)	inactive: 0.022
OMA1 (UniProt Q96E52)	inactive: 0.023
OTC (UniProt P00480)	inactive: -0.089
PANK1 (UniProt Q8TE04)	inactive: -0.031
PAFAH1B3 (UniProt Q15102)	inactive: 0.073
PALM3 (UniProt A6NDB9)	inactive: 0.015
OVCA2 (UniProt Q8WZ82)	inactive: 0.105
PACS1 (UniProt Q6VY07)	inactive: 0.041
NUP205 (UniProt Q92621)	inactive: 0.015
OPA1 isoform 2 (UniProt O60313)	inactive: -0.001
OTUD6B (UniProt Q8N6M0)	inactive: 0.023
PAPOLA (UniProt P51003)	inactive: 0.002
OTUD5 isoform 5 (UniProt Q96G74)	inactive: 0.007

Target	log2 fold change
NUP50 (UniProt Q9UKX7)	inactive: 0.018
OGFOD2 (UniProt Q6N063)	inactive: 0.002
PAK1IP1 (UniProt Q9NWT1)	inactive: 0.008
PACSIN2 (UniProt Q9UNF0)	inactive: -0.023
OSTC (UniProt Q9NRP0)	inactive: 0.173
ORC4 (UniProt O43929)	inactive: -0.033
PAF1 (UniProt Q8N7H5)	inactive: 0.023
OGFOD3 (UniProt Q6PK18)	inactive: 0.138
OSTC isoform 2 (UniProt Q9NRP0)	inactive: -0.046
OSBPL2 (UniProt Q9H1P3)	inactive: 0.033
NUP210 (UniProt Q8TEM1)	inactive: -0.029
NUP85 (UniProt Q9BW27)	inactive: 0.016
NXF1 (UniProt Q9UBU9)	inactive: 0.017
ORC3 isoform 2 (UniProt Q9UBD5)	inactive: -0.034
PAPSS1 (UniProt O43252)	inactive: 0.021
PALMD (UniProt Q9NP74)	inactive: 0.093

Compound: CC(=O)c1cnc2ccc(-c3cc(Cl)c(O)c(Cl)c3)nc2c1N[C@H]1CC[C@H](CN(C)C)CC1
Test: as above
Summary of the method: as §1

Target	log2 fold change
OXSR1 (UniProt O95747)	inactive: 0.01
ORC5 (UniProt O43913)	inactive: 0
OSBPL8 (UniProt Q9BZF1)	inactive: -0.028
NUP188 (UniProt Q5SRE5)	inactive: 0.019
PAGR1 (UniProt Q9BTK6)	inactive: 0.106
OMA1 (UniProt Q96E52)	inactive: 0.026
OTC (UniProt P00480)	inactive: 0.001
PANK1 (UniProt Q8TE04)	inactive: -0.007
PAFAH1B3 (UniProt Q15102)	inactive: -0.004
PALM3 (UniProt A6NDB9)	inactive: -0.007
OVCA2 (UniProt Q8WZ82)	inactive: 0.045
PACS1 (UniProt Q6VY07)	inactive: -0.011
NUP205 (UniProt Q92621)	inactive: 0.026
OPA1 isoform 2 (UniProt O60313)	inactive: 0.006
OTUD6B (UniProt Q8N6M0)	inactive: 0.003
PAPOLA (UniProt P51003)	inactive: -0.007
OTUD5 isoform 5 (UniProt Q96G74)	inactive: -0.014

Target	log2 fold change
NUP50 (UniProt Q9UKX7)	inactive: 0.002
OGFOD2 (UniProt Q6N063)	inactive: 0.023
PAK1IP1 (UniProt Q9NWT1)	inactive: -0.01
PACSIN2 (UniProt Q9UNF0)	inactive: 0.012
OSTC (UniProt Q9NRP0)	inactive: -0.003
ORC4 (UniProt O43929)	inactive: 0.022
PAF1 (UniProt Q8N7H5)	inactive: 0.015
OGFOD3 (UniProt Q6PK18)	inactive: -0.041
OSTC isoform 2 (UniProt Q9NRP0)	inactive: 0.035
OSBPL2 (UniProt Q9H1P3)	inactive: -0.042
NUP210 (UniProt Q8TEM1)	inactive: -0.01
NUP85 (UniProt Q9BW27)	inactive: -0.017
NXF1 (UniProt Q9UBU9)	inactive: 0.021
ORC3 isoform 2 (UniProt Q9UBD5)	inactive: 0.007
PAPSS1 (UniProt O43252)	inactive: 0.001
PALMD (UniProt Q9NP74)	inactive: 0.089

Compound: CC(C)(C)Cn1c(N)nc2ccc(-c3[nH]c(C(C)(C)C)nc3-c3ccc(F)cc3)nc21 [ralimetinib]
Test: as above
Summary of the method: as §1

Target	log2 fold change
OXSR1 (UniProt O95747)	inactive: 0.008
ORC5 (UniProt O43913)	inactive: 0.047
OSBPL8 (UniProt Q9BZF1)	inactive: 0.017
NUP188 (UniProt Q5SRE5)	inactive: 0.041
PAGR1 (UniProt Q9BTK6)	inactive: 0.055
OMA1 (UniProt Q96E52)	inactive: -0.026
OTC (UniProt P00480)	inactive: 0.065
PANK1 (UniProt Q8TE04)	inactive: 0.04
PAFAH1B3 (UniProt Q15102)	inactive: 0.003
PALM3 (UniProt A6NDB9)	inactive: 0.005
OVCA2 (UniProt Q8WZ82)	inactive: -0.046
PACS1 (UniProt Q6VY07)	inactive: 0.012
NUP205 (UniProt Q92621)	inactive: 0.026
OPA1 isoform 2 (UniProt O60313)	inactive: -0.004
OTUD6B (UniProt Q8N6M0)	inactive: -0.003
PAPOLA (UniProt P51003)	inactive: -0.01
OTUD5 isoform 5 (UniProt Q96G74)	inactive: -0.018

Target	log2 fold change
NUP50 (UniProt Q9UKX7)	inactive: -0.024
OGFOD2 (UniProt Q6N063)	inactive: -0.012
PAK1IP1 (UniProt Q9NWT1)	inactive: 0.005
PACSIN2 (UniProt Q9UNF0)	inactive: 0
OSTC (UniProt Q9NRP0)	inactive: 0.085
ORC4 (UniProt O43929)	inactive: 0.004
PAF1 (UniProt Q8N7H5)	inactive: 0.005
OGFOD3 (UniProt Q6PK18)	inactive: 0
OSTC isoform 2 (UniProt Q9NRP0)	inactive: -0.023
OSBPL2 (UniProt Q9H1P3)	inactive: -0.008
NUP210 (UniProt Q8TEM1)	inactive: -0.011
NUP85 (UniProt Q9BW27)	inactive: 0.02
NXF1 (UniProt Q9UBU9)	inactive: 0.043
ORC3 isoform 2 (UniProt Q9UBD5)	inactive: 0.034
PAPSS1 (UniProt O43252)	inactive: 0.008
PALMD (UniProt Q9NP74)	inactive: 0.013
